This is one part of the list.
These compounds were tested on T1, CTL2-GFP (C. trachomatis L2/434/Bu, GFP-expressing). Details: bulk GFP, single well; 28.5 h, 10 µM; inhibitor.
T1 construct: L2/434/Bu, GFP-expressing
Parameters: species or system HeLa; Intracellular C. trachomatis growth in HeLa cells, bulk GFP fluorescence relative to DMSO

Row | Compound | % of control remaining [%]
1 | CC1=NN(c2ccccc2F)C(=O)C1 [CBK067773] | 81.5239
2 | O=C(CSc1nnc(-c2ccncc2)n1-c1ccccc1)N/N=C/c1ccccc1O [CBK262788] | 100
3 | N#Cc1c(N)ncnc1-c1ccccc1 [CBK102172] | 141.857
4 | O=C(Nc1nccs1)c1ncoc1-c1cccs1 [CBK283975] | 113.49
5 | COc1cc(S(=O)(=O)NCCc2ccccc2)c(OC)cc1C [CBK269868] | 100.934
6 | O=C(NCC1CCCO1)c1ccc2c(c1)C(=O)N(c1ccccc1-c1ccccc1)C2=O (centres unmarked) [CBK262777] | 130.274
7 | COc1cc(/C=N/Nc2ccc(C(=O)O)cc2)cc(Br)c1O [CBK263318] | 99.0539
8 | COc1ccc(-c2ccc(CCC(=O)O)n2-c2ccc(N(C)C)cc2)cc1 [CBK131895] | 81.8039
9 | CC(O)CNc1nccnc1-c1cccc(O)c1 (centres unmarked) [CBK037055] | 201.078
10 | Cc1cc(C)c(NC(=O)CSc2nnc(Cc3ccccc3)n2C)c(C)c1 [CBK265990] | 108.546
11 | CCN1CCN(c2ccc(Nc3ccnc4cc5ccccc5cc34)cc2)CC1 [CBK261130] | 103.368
12 | Cc1onc(-c2ccccc2)c1CNC(=O)c1cncnc1 [CBK144098] | 133.549
13 | O=C(CCn1cnnn1)N1C[C@H]2CC[C@@H]1CN(Cc1cccnc1)C2 [CBK307029] | 177.267
14 | CC1(CNC(=O)c2cc(-c3ccc(F)cc3)no2)COC1 [CBK281757] | 148.34
15 | Cc1cc(C)n2nc(CC(=O)NCCCn3cc(Cl)cn3)nc2n1 [CBK307276] | 151.45
16 | Cc1nc(CCNC(=O)N(Cc2cnn(C)c2)C2CC2)nc2c1CCC2 [CBK307650] | 153.626
17 | Cc1ccccc1-c1cncc(C2CCN(C(=O)Cc3c[nH]c4ccccc34)CC2)n1 [CBK286148] | 125.003
18 | COC(=O)c1c(C)n[nH]c1COc1ccccc1 [CBK057823] | 130.127
19 | Cn1nc(C(=O)Nc2ccccc2Oc2ccc(F)cc2)ccc1=O [CBK281430] | 135.713
20 | Cc1noc(C)c1C(=O)Nc1ccc(N2CCOCC2)c2nonc12 [CBK268125] | 113.062
21 | COc1ccc(C)cc1NC(=O)CCN1CCN(CCO)CC1 [CBK264199] | 119.057
22 | O=C(NCCCc1ccc(Cl)cc1)c1cc2c([nH]c1=O)CCC2 [CBK281560] | 133.43
23 | COc1ccccc1Cc1cccc(C2CCN(C(=O)c3ccc(F)cc3)CC2)n1 [CBK286237] | 84.5681

Sorted by molar mass (smallest number first): three of the compounds above
Row | Compound | % of control remaining [%]
18 | COC(=O)c1c(C)n[nH]c1COc1ccccc1 [CBK057823] | 130.127
22 | O=C(NCCCc1ccc(Cl)cc1)c1cc2c([nH]c1=O)CCC2 [CBK281560] | 133.43
16 | Cc1nc(CCNC(=O)N(Cc2cnn(C)c2)C2CC2)nc2c1CCC2 [CBK307650] | 153.626

Reference: publication PMC12040169 (PLOS Biology, 2025)
